Taken from: PubChem BioAssay AID504764 (Drosophila RNAi Screening Center, 2011)
The screen tested about 22,000 reagents; below is an unselected part of those that have a named target and a result. Of all reagents, 403 (1.9%) are marked active. 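Unnormalised raw counts per well; ratio z-scores behind the hit calls and whether each hit raises or lowers signal are not deposited.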 A number with no mark means an inactive call. Not given: the amount of reagent.

Test: 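Genes whose knock-down alters Notch-dependent transcription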 (primary screen)
System: Drosophila Kc167 cells
Reagent: long dsRNA against Drosophila genes
Timing: about 5 days (4 days dsRNA, then 24 h after transfection)
Challenge: transfection of constitutively active membrane-tethered Notch lacking the extracellular domain, read 24 h later
Measured: 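Firefly luciferase from an E(spl)m3 reporter with active Notch, plus control-promoter and uninduced reporter wells for normalisation; unnormalised counts, duplicate wells a and b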
Reading the numbers: induced reporter light, run 1, well a and induced reporter light, run 1, well b: higher = more light from the Notch target reporter with active Notch; control promoter light, run 1, well a and control promoter light, run 1, well b: higher = more light from the viral control promoter (cell number, transfection, viability); uninduced reporter light, run 1, well a: higher = more light from the Notch target reporter without active Notch
Hit rule: 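Hit if the duplicate-averaged log2 ratio of induced to control-promoter light gives a plate-wise z beyond ±2, or induced to uninduced beyond ±1.8; weak-control or discordant-duplicate wells dropped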
Meaning of the calls: active = modifier hit (raised or lowered Notch signal); inactive = not a hit

lqfR [DRSC14703] — induced reporter light, run 1, well a: 92595; induced reporter light, run 1, well b: 1.02e5; control promoter light, run 1, well a: 86505; control promoter light, run 1, well b: 89785; uninduced reporter light, run 1, well a: 10670
lqfR [DRSC14704] — induced reporter light, run 1, well a: 1.61e5; induced reporter light, run 1, well b: 1.28e5; control promoter light, run 1, well a: 1.59e5; control promoter light, run 1, well b: 1.76e5; uninduced reporter light, run 1, well a: 11110
Osi12 [DRSC12177] — induced reporter light, run 1, well a: 42555; induced reporter light, run 1, well b: 75390; control promoter light, run 1, well a: 74575; control promoter light, run 1, well b: 60445; uninduced reporter light, run 1, well a: 3805
dpr4 [DRSC14531] — induced reporter light, run 1, well a: 76185; induced reporter light, run 1, well b: 85495; control promoter light, run 1, well a: 81980; control promoter light, run 1, well b: 57530; uninduced reporter light, run 1, well a: 4150
dpr4 [DRSC14929] — induced reporter light, run 1, well a: 78470; induced reporter light, run 1, well b: 82170; control promoter light, run 1, well a: 56075; control promoter light, run 1, well b: 53300; uninduced reporter light, run 1, well a: 4500
ru [DRSC08258] — induced reporter light, run 1, well a: 1.13e5; induced reporter light, run 1, well b: 1.21e5; control promoter light, run 1, well a: 1.66e5; control promoter light, run 1, well b: 2.05e5; uninduced reporter light, run 1, well a: 8900
CG7231 [DRSC03034] — induced reporter light, run 1, well a: 1.33e5; induced reporter light, run 1, well b: 1.59e5; control promoter light, run 1, well a: 85760; control promoter light, run 1, well b: 97690; uninduced reporter light, run 1, well a: 20675
sob [DRSC00838] — induced reporter light, run 1, well a: 64660; induced reporter light, run 1, well b: 57540; control promoter light, run 1, well a: 37665; control promoter light, run 1, well b: 44100; uninduced reporter light, run 1, well a: 7332
Mps1 [DRSC16273] — induced reporter light, run 1, well a: 1.25e5 (active); induced reporter light, run 1, well b: 1.10e5; control promoter light, run 1, well a: 90335; control promoter light, run 1, well b: 94865; uninduced reporter light, run 1, well a: 10150
His3.3A [DRSC03343] — induced reporter light, run 1, well a: 6265 (active); induced reporter light, run 1, well b: 5020; control promoter light, run 1, well a: 10365; control promoter light, run 1, well b: 8715; uninduced reporter light, run 1, well a: 1055
Cyt-c-d [DRSC03309] — induced reporter light, run 1, well a: 1.21e5; induced reporter light, run 1, well b: 1.28e5; control promoter light, run 1, well a: 1.38e5; control promoter light, run 1, well b: 1.64e5; uninduced reporter light, run 1, well a: 9710
Fcp1 [DRSC04121] — induced reporter light, run 1, well a: 1.78e5; induced reporter light, run 1, well b: 2.59e5; control promoter light, run 1, well a: 2.10e5; control promoter light, run 1, well b: 1.95e5; uninduced reporter light, run 1, well a: 21865
dbr [DRSC00274] — induced reporter light, run 1, well a: 96175; induced reporter light, run 1, well b: 2.12e5; control promoter light, run 1, well a: 2.14e5; control promoter light, run 1, well b: 2.90e5; uninduced reporter light, run 1, well a: 18050
CG10904 [DRSC04084] — induced reporter light, run 1, well a: 2.37e5; induced reporter light, run 1, well b: 2.02e5; control promoter light, run 1, well a: 2.02e5; control promoter light, run 1, well b: 1.76e5; uninduced reporter light, run 1, well a: 14450
CG5003 [DRSC15694] — induced reporter light, run 1, well a: 2.10e5; induced reporter light, run 1, well b: 2.07e5; control promoter light, run 1, well a: 2.35e5; control promoter light, run 1, well b: 2.95e5; uninduced reporter light, run 1, well a: 13975
rho [DRSC08734] — induced reporter light, run 1, well a: 1.30e5; induced reporter light, run 1, well b: 1.43e5; control promoter light, run 1, well a: 2.13e5; control promoter light, run 1, well b: 2.66e5; uninduced reporter light, run 1, well a: 11155
CG42540 [DRSC08327] — induced reporter light, run 1, well a: 16595; induced reporter light, run 1, well b: 16130; control promoter light, run 1, well a: 10875; control promoter light, run 1, well b: 6100; uninduced reporter light, run 1, well a: 8325
CG42540 [DRSC08328] — induced reporter light, run 1, well a: 2.20e5; induced reporter light, run 1, well b: 2.52e5; control promoter light, run 1, well a: 2.10e5; control promoter light, run 1, well b: 2.30e5; uninduced reporter light, run 1, well a: 11790
CG42540 [DRSC08593] — induced reporter light, run 1, well a: 7770; induced reporter light, run 1, well b: 8580; control promoter light, run 1, well a: 9780; control promoter light, run 1, well b: 11155; uninduced reporter light, run 1, well a: 4420

Records above whose gene name begins with L or l (2):
lqfR [DRSC14703] — induced reporter light, run 1, well a: 92595; induced reporter light, run 1, well b: 1.02e5; control promoter light, run 1, well a: 86505; control promoter light, run 1, well b: 89785; uninduced reporter light, run 1, well a: 10670
lqfR [DRSC14704] — induced reporter light, run 1, well a: 1.61e5; induced reporter light, run 1, well b: 1.28e5; control promoter light, run 1, well a: 1.59e5; control promoter light, run 1, well b: 1.76e5; uninduced reporter light, run 1, well a: 11110
